Some entries share one result that the patent states for a list of compounds.
Each compound was assayed on powdery mildew (Sphaerotheca cucurbitae) (assay: Test of preventive effect on cucumber powdery mildew). Details: 500 ppm test solution sprayed on cucumber seedlings; about ten days after inoculation.
Assay type: in vivo
`CCN(C)C=Nc1cc(C)c(C#CCCc2ccccc2)cc1C` [Compound 107] was tested, and the Preventive value was ≥ 50%. `CCN(C)C=Nc1cc(C)c(C#Cc2ccccc2)cc1C` [Compound 110] was tested, and the Preventive value was ≥ 50%. With `CCN(C)C=Nc1cc(C)c(C#Cc2ccc(C(C)(C)C)cc2)cc1C` [Compound 117] the Preventive value was ≥ 50%. For `CCN(C)C=Nc1cc(C)c(C#Cc2ccc(OC)cc2)cc1C` [Compound 121], the Preventive value was ≥ 50%. In the case of `CCN(C)C=Nc1cc(C)c(C#C[Si](CC)(CC)CC)cc1C` [Compound 124], the Preventive value is reported as ≥ 50%. `CCN(C)C=Nc1cc(C)c(C#C[Si](C)(C)C(C)(C)C)cc1C` [Compound 126] was tested, and the Preventive value was ≥ 50%. In the case of `CCN(C)C=Nc1cc(C)c(C#Cc2ccsc2)cc1C` [Compound 128], the Preventive value is reported as ≥ 50%.

The compounds below were run on gray mold (Botrytis cinerea) (assay: Test of preventive effect on cucumber gray mold). Details: 500 ppm test solution sprayed on cucumber seedlings; cut cotyledon; necrotic lesion diameter four days after inoculation.
Assay type: in vivo
For `CCN(C)C=Nc1cc(C)c(C#Cc2ccccc2)cc1C` [Compound 110], the Preventive value was ≥ 50%. `CCN(C)C=Nc1cc(C)c(C#Cc2ccc(C(C)(C)C)cc2)cc1C` [Compound 117] was tested, and the Preventive value was ≥ 50%.

What follows are compounds tested on rice blast (Pyricularia oryzae) (assay: not given). Details: 500 ppm test solution sprayed on rice seedlings; seven days after inoculation.
Assay type: in vivo
`CCN(C)C=Nc1cc(C)c(C#Cc2ccccc2)cc1C` [Compound 110] was tested, and the Preventive value was ≥ 50%. With `CCN(C)C=Nc1cc(C)c(C#C[Si](C)(C)C(C)(C)C)cc1C` [Compound 126] the Preventive value was ≥ 50%.

These compounds were tested on tomato late blight (Phytophthora infestans) (assay: not given). Details: 500 ppm test solution sprayed on tomato seedlings; five days after inoculation.
Assay type: in vivo
For `CCN(C)C=Nc1cc(C)c(C#CCCc2ccccc2)cc1C` [Compound 107], the Preventive value was ≥ 50%. For `CCN(C)C=Nc1cc(C)c(C#Cc2ccc(OC)cc2)cc1C` [Compound 121], the Preventive value was ≥ 50%. For `CCN(C)C=Nc1cc(C)c(C#C[Si](CC)(CC)CC)cc1C` [Compound 124], the Preventive value was ≥ 50%. `CCN(C)C=Nc1cc(C)c(C#Cc2ccsc2)cc1C` [Compound 128] was tested, and the Preventive value was ≥ 50%.

The compounds below were run on Wheat scab (Microdochium nivale) (assay: Test of inhibition of growth of wheat scab mycelium). Details: final concentration 10 ppm in PDA medium; 25° C., 2 to 3 days.
Assay type: cell-based
In the case of `CCN(C)C=Nc1cc(C)c(C#CCCc2ccccc2)cc1C` [Compound 107], the “inhibition rate (mycelium growth length)” value is reported as 100%. In the case of `CCN(C)C=Nc1cc(C)c(C#Cc2ccccc2)cc1C` [Compound 110], the “inhibition rate (mycelium growth length)” value is reported as 100%. With `CCN(C)C=Nc1cc(C)c(C#Cc2ccc(C(C)(C)C)cc2)cc1C` [Compound 117] the “inhibition rate (mycelium growth length)” value was 100%. With `CCN(C)C=Nc1cc(C)c(C#Cc2ccc(OC)cc2)cc1C` [Compound 121] the “inhibition rate (mycelium growth length)” value was 100%. `CCN(C)C=Nc1cc(C)c(C#C[Si](CC)(CC)CC)cc1C` [Compound 124] was tested, and the “inhibition rate (mycelium growth length)” value was 100%. In the case of `CCN(C)C=Nc1cc(C)c(C#C[Si](C)(C)C(C)(C)C)cc1C` [Compound 126], the “inhibition rate (mycelium growth length)” value is reported as 100%. With `CCN(C)C=Nc1cc(C)c(C#Cc2ccsc2)cc1C` [Compound 128] the “inhibition rate (mycelium growth length)” value was 100%.

What follows are compounds tested on wheat powdery mildew (Erysiphe graminis) (assay: Test of preventive effect on wheat powdery mildew). Details: 500 ppm test solution sprayed on wheat seedlings; seven days after inoculation.
With `CCN(C)C=Nc1cc(C)c(C#CCCc2ccccc2)cc1C` [Compound 107] the Preventive value was ≥ 50%. In the case of `CCN(C)C=Nc1cc(C)c(C#Cc2ccccc2)cc1C` [Compound 110], the Preventive value is reported as ≥ 50%. In the case of `CCN(C)C=Nc1cc(C)c(C#Cc2ccc(C(C)(C)C)cc2)cc1C` [Compound 117], the Preventive value is reported as ≥ 50%. In the case of `CCN(C)C=Nc1cc(C)c(C#Cc2ccc(OC)cc2)cc1C` [Compound 121], the Preventive value is reported as ≥ 50%. In the case of `CCN(C)C=Nc1cc(C)c(C#C[Si](CC)(CC)CC)cc1C` [Compound 124], the Preventive value is reported as ≥ 50%. In the case of `CCN(C)C=Nc1cc(C)c(C#C[Si](C)(C)C(C)(C)C)cc1C` [Compound 126], the Preventive value is reported as ≥ 50%. With `CCN(C)C=Nc1cc(C)c(C#Cc2ccsc2)cc1C` [Compound 128] the Preventive value was ≥ 50%.

From patent US8785649B2, “Ethynylphenylamidine compound or salt thereof, method for producing same, and fungicide for agricultural and horticultural use” (priority 2010, dated 2014)
